Measurements from article doi:10.1101/2023.07.10.547766.
Read-outs that look alike come from different tables or passages of the source. No constants are given. Whether binding was seen depends on the method and setting. Some results given as binding are weak or reduced against the parent protein; the word gives no strength. Sequences can lack the tags named with a protein.

T1: ShcD-CH2 domain (amino acid 1-179) fused to LexA DNA binding domain (human) (UniProt Q6S5L8)
T1 sequence: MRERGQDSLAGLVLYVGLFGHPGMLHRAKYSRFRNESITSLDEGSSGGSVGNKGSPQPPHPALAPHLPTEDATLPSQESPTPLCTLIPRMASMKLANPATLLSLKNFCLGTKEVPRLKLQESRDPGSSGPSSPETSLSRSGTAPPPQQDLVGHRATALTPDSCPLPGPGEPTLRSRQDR


How the values were obtained:
[1] = target: T1, ShcD-CH2 domain (amino acid 1-179) fused to LexA DNA binding domain (human); test: two-hybrid
[2] = target: T1, ShcD-CH2 domain (amino acid 1-179) fused to LexA DNA binding domain (human); test: two-hybrid; remark: listed apart in the source

Binder | binding [1] | binding [2]
Nischarin clone 6.1C (amino acids 541-666) (domain or fragment, UniProt Q80TM9 541-666) ACSDSLESIPAGQVASDDLRDVPGAVGGVSPDHAEPEVQVVPGSGQIIFLPFTCIGYTATNQDFIQRLSTLIRQAIERQLPAWIEAANQREEAHGEQGEEEEEEEEEEDVAENRYFEMGPPDAEEE | binds | binds
Nischarin clone 66.1C (amino acids 559-741) (domain or fragment, UniProt Q80TM9 559-741) LRDVPGAVGGVSPDHAEPEVQVVPGSGQIIFLPFTCIGYTATNQDFIQRLSTLIRQAIERQLPAWIEAANQREEAHGEQGEEEEEEEEEEDVAENRYFEMGPPDAEEEEGSGQGEEDEEDEDEEAEEERLALEWALGADEDFLLEHIRILKVLWCFLIHVQGSIRQFAACLVLTDFGIAVFEI | binds | binds
Nisch 1 (complete coiled-coil domain of Nischarin, amino acids 620-694) (domain or fragment, UniProt Q80TM9 620-694) LPAWIEAANQREEAHGEQGEEEEEEEEEEDVAENRYFEMGPPDAEEEEGSGQGEEDEEDEDEEAEEERLALEWAL | no binding | –
LPAWIEAANQREEAHGEQGEEEEEEEEEEDVAENRYFEMGPPDAEEE (domain or fragment, UniProt Q80TM9 620-666) [Nisch 2 (coiled-coil domain of Nischarin encoded by 6.1C, 620-666)] | no binding | –
